Laboratory results reported in the supplement of paper PMC10849652.
This is one part of the list.

Protein sequences, listed by entry. Tags and fused reporters are not part of them. Lines headed by an entry give the natural chain unless they say otherwise; changes in a name come on top.
UniProt P61224: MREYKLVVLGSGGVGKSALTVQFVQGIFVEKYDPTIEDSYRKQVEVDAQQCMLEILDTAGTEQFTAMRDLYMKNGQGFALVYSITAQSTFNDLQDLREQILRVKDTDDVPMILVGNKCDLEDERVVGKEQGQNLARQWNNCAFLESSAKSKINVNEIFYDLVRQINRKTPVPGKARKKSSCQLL
UniProt O43251: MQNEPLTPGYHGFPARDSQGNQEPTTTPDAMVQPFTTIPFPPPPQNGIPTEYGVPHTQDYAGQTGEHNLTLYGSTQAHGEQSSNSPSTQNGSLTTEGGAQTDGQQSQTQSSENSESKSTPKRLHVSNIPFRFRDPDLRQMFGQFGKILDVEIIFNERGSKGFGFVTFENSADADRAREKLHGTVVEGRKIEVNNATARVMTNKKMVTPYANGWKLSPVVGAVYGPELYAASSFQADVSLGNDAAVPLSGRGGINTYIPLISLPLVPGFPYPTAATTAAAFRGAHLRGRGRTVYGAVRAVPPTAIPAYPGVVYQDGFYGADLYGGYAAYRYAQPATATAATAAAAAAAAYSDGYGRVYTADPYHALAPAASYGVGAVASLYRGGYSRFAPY
UniProt P61019: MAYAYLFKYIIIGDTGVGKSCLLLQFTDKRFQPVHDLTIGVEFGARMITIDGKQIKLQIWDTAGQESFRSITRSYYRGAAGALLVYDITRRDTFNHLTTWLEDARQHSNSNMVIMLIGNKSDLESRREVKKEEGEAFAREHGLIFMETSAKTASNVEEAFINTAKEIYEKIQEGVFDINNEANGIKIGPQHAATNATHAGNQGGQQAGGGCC
UniProt P10114: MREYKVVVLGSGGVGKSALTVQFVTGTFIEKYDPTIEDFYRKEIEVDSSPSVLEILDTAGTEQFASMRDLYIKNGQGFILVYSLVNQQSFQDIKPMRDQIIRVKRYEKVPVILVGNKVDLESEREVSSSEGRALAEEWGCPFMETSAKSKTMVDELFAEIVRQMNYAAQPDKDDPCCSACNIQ
UniProt Q8WWW0: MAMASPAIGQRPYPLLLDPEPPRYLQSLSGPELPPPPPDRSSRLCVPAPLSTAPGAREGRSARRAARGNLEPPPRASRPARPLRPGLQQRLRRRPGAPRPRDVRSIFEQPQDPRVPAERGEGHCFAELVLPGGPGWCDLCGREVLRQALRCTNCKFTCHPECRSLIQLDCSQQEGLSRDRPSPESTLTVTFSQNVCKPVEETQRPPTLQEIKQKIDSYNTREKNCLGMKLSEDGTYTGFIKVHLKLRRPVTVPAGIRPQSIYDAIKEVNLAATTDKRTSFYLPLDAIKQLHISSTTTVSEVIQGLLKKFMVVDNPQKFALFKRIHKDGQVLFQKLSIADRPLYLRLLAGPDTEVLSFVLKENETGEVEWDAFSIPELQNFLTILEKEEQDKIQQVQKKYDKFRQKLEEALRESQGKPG
UniProt P61018: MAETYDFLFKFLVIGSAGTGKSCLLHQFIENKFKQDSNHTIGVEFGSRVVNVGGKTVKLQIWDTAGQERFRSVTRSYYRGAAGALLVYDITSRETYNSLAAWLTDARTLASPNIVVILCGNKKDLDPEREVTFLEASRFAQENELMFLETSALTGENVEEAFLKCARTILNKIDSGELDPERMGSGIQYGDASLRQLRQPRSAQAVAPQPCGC
UniProt Q9Y3P9: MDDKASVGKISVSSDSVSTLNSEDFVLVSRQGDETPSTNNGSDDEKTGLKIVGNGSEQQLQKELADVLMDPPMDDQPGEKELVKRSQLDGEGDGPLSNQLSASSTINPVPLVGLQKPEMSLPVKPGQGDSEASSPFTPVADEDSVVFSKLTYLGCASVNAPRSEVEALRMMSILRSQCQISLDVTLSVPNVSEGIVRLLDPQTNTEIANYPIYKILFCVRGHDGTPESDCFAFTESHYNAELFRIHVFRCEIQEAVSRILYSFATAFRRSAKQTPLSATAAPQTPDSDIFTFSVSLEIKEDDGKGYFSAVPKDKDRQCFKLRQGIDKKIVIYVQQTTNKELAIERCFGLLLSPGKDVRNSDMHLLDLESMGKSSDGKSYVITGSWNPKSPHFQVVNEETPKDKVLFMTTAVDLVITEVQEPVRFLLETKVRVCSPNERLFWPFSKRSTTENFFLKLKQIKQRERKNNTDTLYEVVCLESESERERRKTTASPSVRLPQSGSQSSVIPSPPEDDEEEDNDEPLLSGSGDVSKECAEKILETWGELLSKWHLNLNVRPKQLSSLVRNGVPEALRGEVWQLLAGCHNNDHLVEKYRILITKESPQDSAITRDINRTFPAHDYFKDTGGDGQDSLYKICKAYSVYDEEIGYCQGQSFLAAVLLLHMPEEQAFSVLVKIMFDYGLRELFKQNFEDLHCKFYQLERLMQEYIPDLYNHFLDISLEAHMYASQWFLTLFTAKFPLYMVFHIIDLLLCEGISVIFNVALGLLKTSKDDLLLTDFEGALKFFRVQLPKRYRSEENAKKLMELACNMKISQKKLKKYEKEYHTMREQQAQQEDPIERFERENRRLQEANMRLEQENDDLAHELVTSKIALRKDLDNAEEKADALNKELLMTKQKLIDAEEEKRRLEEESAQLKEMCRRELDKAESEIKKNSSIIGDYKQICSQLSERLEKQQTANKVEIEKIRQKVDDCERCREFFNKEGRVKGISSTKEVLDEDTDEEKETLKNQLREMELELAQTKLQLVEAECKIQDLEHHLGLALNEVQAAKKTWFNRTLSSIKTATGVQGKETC
UniProt P62834: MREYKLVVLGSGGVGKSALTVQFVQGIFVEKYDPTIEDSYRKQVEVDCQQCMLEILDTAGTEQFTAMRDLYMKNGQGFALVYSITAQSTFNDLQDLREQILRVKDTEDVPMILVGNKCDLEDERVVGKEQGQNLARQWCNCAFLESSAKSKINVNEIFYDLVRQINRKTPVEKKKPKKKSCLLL
UniProt P62491: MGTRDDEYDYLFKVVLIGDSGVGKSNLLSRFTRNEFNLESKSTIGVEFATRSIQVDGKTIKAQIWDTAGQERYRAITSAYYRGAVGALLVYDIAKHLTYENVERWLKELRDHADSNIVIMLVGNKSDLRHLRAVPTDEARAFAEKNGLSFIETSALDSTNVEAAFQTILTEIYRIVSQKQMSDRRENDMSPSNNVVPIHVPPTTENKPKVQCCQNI
UniProt O00194: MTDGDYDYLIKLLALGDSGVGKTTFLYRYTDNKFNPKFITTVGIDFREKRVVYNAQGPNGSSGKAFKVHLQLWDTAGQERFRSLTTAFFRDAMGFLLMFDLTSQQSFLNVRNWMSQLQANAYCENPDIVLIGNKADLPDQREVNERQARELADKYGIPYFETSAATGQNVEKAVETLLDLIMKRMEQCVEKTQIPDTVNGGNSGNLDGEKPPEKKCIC
UniProt P20936: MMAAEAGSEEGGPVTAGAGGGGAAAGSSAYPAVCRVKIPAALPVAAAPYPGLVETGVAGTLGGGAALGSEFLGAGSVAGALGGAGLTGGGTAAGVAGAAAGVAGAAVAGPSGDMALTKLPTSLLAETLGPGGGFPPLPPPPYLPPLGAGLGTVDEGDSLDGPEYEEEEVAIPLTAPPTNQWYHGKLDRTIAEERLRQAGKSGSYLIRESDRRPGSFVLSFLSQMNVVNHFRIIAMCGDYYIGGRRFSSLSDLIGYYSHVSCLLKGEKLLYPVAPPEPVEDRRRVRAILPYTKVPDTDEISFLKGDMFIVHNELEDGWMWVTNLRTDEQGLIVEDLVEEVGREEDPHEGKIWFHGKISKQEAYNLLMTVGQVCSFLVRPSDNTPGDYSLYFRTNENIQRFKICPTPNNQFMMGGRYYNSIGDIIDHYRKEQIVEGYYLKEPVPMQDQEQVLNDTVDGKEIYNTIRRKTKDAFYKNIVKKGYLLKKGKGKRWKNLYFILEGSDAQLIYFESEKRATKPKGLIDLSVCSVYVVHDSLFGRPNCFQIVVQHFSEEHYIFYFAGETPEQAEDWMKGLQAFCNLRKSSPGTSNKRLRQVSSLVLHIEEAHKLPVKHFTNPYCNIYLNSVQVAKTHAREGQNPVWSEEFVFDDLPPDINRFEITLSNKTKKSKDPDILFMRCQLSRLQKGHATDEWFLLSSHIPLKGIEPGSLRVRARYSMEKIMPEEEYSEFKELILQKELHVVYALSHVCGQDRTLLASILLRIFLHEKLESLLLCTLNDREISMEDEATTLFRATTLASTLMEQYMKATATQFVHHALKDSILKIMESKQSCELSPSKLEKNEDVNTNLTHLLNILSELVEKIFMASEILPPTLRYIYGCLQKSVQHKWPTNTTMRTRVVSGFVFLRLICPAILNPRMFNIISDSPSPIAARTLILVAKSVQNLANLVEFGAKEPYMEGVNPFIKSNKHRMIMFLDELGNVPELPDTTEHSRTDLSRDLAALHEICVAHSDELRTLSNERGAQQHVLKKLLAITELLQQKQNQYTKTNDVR
UniProt Q96D70: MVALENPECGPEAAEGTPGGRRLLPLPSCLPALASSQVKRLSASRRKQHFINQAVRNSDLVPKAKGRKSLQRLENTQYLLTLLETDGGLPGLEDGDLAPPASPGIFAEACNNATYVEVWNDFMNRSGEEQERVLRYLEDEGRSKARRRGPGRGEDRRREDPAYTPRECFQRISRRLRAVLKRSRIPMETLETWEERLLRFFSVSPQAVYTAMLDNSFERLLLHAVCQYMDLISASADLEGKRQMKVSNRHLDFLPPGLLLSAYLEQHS
UniProt Q9H0H5: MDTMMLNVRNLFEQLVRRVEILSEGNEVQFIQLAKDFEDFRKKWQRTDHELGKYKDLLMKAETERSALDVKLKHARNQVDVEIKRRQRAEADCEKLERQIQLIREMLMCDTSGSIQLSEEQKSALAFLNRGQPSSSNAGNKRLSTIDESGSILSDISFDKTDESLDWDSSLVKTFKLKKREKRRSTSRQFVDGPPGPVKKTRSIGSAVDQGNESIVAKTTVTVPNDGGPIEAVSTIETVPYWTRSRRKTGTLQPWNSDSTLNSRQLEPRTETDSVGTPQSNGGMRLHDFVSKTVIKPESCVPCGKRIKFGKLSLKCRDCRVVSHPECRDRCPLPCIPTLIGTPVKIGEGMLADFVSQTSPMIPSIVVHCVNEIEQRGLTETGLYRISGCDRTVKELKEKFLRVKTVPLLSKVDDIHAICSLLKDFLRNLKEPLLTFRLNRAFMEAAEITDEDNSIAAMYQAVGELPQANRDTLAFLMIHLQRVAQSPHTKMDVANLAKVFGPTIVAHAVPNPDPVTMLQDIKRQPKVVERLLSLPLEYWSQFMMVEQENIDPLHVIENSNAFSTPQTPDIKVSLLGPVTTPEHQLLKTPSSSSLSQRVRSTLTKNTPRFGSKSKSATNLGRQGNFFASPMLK
UniProt P53611: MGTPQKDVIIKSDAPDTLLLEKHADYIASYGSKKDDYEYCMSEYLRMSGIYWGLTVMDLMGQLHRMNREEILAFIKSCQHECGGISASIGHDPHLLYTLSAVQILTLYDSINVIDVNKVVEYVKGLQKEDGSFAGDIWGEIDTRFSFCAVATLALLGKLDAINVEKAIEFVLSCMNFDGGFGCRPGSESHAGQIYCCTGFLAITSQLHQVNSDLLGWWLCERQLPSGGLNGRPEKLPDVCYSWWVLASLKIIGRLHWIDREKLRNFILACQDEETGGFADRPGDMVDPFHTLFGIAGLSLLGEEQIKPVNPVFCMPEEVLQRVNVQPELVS
UniProt P11234: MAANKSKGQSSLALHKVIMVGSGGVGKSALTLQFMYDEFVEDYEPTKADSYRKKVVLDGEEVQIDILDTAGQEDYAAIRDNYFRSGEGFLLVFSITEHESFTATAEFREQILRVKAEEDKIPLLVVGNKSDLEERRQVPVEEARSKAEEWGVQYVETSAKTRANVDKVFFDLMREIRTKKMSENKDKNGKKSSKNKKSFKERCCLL
UniProt O43502: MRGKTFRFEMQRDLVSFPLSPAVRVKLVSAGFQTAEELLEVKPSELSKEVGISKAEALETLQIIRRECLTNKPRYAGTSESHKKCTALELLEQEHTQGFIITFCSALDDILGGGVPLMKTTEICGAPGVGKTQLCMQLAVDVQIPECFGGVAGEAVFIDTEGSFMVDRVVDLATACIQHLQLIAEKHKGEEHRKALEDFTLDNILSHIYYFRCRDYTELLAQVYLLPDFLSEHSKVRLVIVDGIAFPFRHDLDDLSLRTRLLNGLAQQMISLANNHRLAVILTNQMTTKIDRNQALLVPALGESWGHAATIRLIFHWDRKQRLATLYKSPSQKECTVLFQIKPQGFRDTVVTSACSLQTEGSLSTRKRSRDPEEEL
UniProt Q9H0U4: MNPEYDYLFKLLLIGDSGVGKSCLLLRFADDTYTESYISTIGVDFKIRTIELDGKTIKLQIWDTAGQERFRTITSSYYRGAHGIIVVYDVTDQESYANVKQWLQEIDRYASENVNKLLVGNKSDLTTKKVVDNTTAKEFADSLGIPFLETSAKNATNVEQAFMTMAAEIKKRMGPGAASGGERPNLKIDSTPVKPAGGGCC
UniProt Q9UI14, whole entry, looked up: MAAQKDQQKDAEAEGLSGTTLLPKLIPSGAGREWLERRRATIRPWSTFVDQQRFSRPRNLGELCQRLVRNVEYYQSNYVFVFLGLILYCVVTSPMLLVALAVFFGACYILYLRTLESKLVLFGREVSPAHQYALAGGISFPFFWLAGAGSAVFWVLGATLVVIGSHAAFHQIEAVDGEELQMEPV

How the values were obtained:
Experiment in all cases: log2 fold change, soluble protein after heating vs DMSO (PISA); higher = thermal stabilisation; K562 cells, 10 uM, 30 min; active = over 0.2 and 3.5 SD of the protein, either way, in both replicates (recomputed)
[1] = compound: NC(=O)Nc1cc(-c2cccc(F)c2)sc1C(=O)N[C@H]1CCCNC1
Method in brief: (§1)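 Aliquots of K562 cells (2×10^6 cells/mL) treated with 10 μM compound for 30 min were heated for 3 min over 48°C-58°C. After pooling and extraction in PBS with 0.5% NP-40 at 4°C, soluble protein from a 21,000xg, 90 min spin was quantified by TMTpro 16plex LC-MS/MS with channel sums equalised. Thermal stability is expressed against control samples, from duplicates, as a log2 fold change.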

[2] = compound: NC(=O)c1cnc(N[C@@H]2CCCC[C@@H]2N)nc1Nc1cccc(-n2nccn2)c1
Method in brief: as §1

[3] = compound: NC1(c2ccc(-c3nc4ccn5c(=O)[nH]nc5c4cc3-c3ccccc3)cc2)CCC1
Method in brief: as §1

[4] = compound: NCC(=O)Nc1ccc(-n2nc(C(F)(F)F)cc2-c2ccc3c(ccc4ccccc43)c2)cc1
Method in brief: as §1

[5] = compound: Nc1ccccc1NC(=O)c1ccc(CNC(=O)OCc2cccnc2)cc1 [entinostat]
Method in brief: as §1

[6] = compound: O=C(CCCCCCC(=O)Nc1ccccc1)NO [vorinostat]
Method in brief: as §1

[7] = compound: O=C(CCCCCCNC(=O)c1cnc(N(c2ccccc2)c2ccccc2Cl)nc1)NO [citarinostat]
Method in brief: as §1

[8] = compound: O=C(O)c1ccc2c(c1)nc(Nc1cccc(Cl)c1)c1ccncc12 [silmitasertib]
Method in brief: as §1

[9] = compound: O=C1NC(=O)C(c2cnc3ccccn23)=C1c1cn2c3c(cc(F)cc13)CN(C(=O)N1CCCCC1)CC2
Method in brief: as §1

[10] = compound: c1cc(OCCN2CCCCC2)cc(-c2n[nH]c3ccc(-c4nnc[nH]4)cc23)c1
Method in brief: as §1

[11] = compound: c1cn2cc(-c3ccc4cn[nH]c4c3)nc(Nc3ccc(N4CCOCC4)cc3)c2n1 [entospletinib]
Method in brief: as §1

Measured: log2 fold change

RAP1B (UniProt P61224)
inactive: [1] -0.009 | [2] 0.067 | [3] 0.052 | [4] 0.057 | [5] -0.035 | [6] 0.003 | [7] -0.005 | [8] -0.015 | [9] 0.012 | [10] 0.032 | [11] 0.004

RACK1 (UniProt D6RF23)
inactive: [1] -0.282 | [2] -0.11 | [3] -0.207 | [4] -0.192 | [5] 0.002 | [6] 0.006 | [7] -0.12 | [8] 0.138 | [9] -0.032 | [10] -0.353 | [11] -0.054

RBFOX2 isoform 8 (UniProt O43251)
inactive: [1] 0.035 | [2] 0.074 | [3] -0.04 | [4] -0.06 | [5] 0.138 | [6] -0.04 | [7] 0.049 | [8] 0.222 | [9] 0.032 | [10] -0.073 | [11] 0.088

RAN (UniProt P62826)
inactive: [1] -0.028 | [2] -0.024 | [3] 0.024 | [4] -0.03 | [5] -0.012 | [6] -0.033 | [7] -0.019 | [8] 0 | [9] -0.017 | [10] -0.008 | [11] 0.007

RAB2A (UniProt P61019)
inactive: [1] -0.032 | [2] -0.03 | [3] -0.045 | [4] -0.014 | [5] 0.011 | [6] -0.018 | [7] -0.02 | [8] 0.002 | [9] -0.007 | [10] 0.035 | [11] 0.005

RAP2A (UniProt P10114)
inactive: [1] -0.147 | [2] 0.008 | [3] 0.028 | [4] -0.063 | [5] -0.085 | [6] 0.104 | [7] -0.041 | [8] -0.057 | [9] -0.078 | [10] -0.092 | [11] 0.049

RASSF5 (UniProt Q8WWW0)
inactive: [1] 0.069 | [2] 0.046 | [3] 0.004 | [4] -0.014 | [5] -0.046 | [6] 0.009 | [7] 0.029 | [8] -0.033 | [9] 0.107 | [10] -0.156 | [11] 0.014

RAD1 (UniProt O60671)
inactive: [1] 0.004 | [2] -0.06 | [3] -0.083 | [4] 0.047 | [5] 0.045 | [6] 0.06 | [7] 0 | [8] -0.002 | [9] -0.116 | [10] -0.085 | [11] 0.035

RAB4B isoform 2 (UniProt P61018)
inactive: [1] -0.009 | [2] 0 | [3] -0.042 | [4] -0.031 | [5] -0.033 | [6] -0.049 | [7] 0.011 | [8] -0.007 | [9] -0.006 | [10] -0.017 | [11] -0.036

RABGAP1 (UniProt Q9Y3P9)
inactive: [1] 0.014 | [2] -0.013 | [3] -0.081 | [4] -0.014 | [5] -0.005 | [6] 0.018 | [7] 0.012 | [8] 0.089 | [9] -0.022 | [10] -0.07 | [11] 0.007

RAD9A (UniProt Q99638)
inactive: [1] -0.047 | [2] 0.003 | [3] -0.044 | [4] 0.048 | [5] -0.007 | [6] 0.144 | [7] 0.019 | [8] -0.021 | [9] -0.092 | [10] -0.007 | [11] -0.003

RAP1A (UniProt P62834)
inactive: [1] -0.025 | [2] 0.036 | [3] 0.059 | [4] 0.066 | [5] -0.039 | [6] -0.058 | [7] 0.016 | [8] -0.063 | [9] 0.003 | [10] -0.003 | [11] -0.001

RAB3C (UniProt Q96E17)
inactive: [1] 0.038 | [2] 0.032 | [3] 0.049 | [4] 0.07 | [5] 0.008 | [6] -0.018 | [7] 0.034 | [8] 0.073 | [9] -0.046 | [10] 0.009 | [11] 0.047

RAB11A (UniProt P62491)
inactive: [1] -0.017 | [2] -0.009 | [3] 0.007 | [4] -0.171 | [5] -0.009 | [6] -0.107 | [7] 0.001 | [8] 0.022 | [9] 0.195 | [10] -0.059 | [11] 0.07

2 neighbouring records already listed:
RAB3C (UniProt Q96E17)
inactive: [1] 0.038 | [2] 0.032 | [3] 0.049 | [4] 0.07 | [5] 0.008 | [6] -0.018 | [7] 0.034 | [8] 0.073 | [9] -0.046 | [10] 0.009 | [11] 0.047

RAB11A (UniProt P62491)
inactive: [1] -0.017 | [2] -0.009 | [3] 0.007 | [4] -0.171 | [5] -0.009 | [6] -0.107 | [7] 0.001 | [8] 0.022 | [9] 0.195 | [10] -0.059 | [11] 0.07

Further records:

RALGAPB (UniProt Q86X10)
inactive: [1] 0.023 | [2] -0.077 | [3] -0.13 | [5] -0.235 | [7] 0.071 | [8] 0.078 | [9] -0.015 | [10] -0.266 | [11] -0.145

RAB27B (UniProt O00194)
inactive: [1] 0.016 | [2] 0.092 | [3] 0.009 | [4] 0.046 | [5] 0.027 | [6] -0.12 | [7] -0.033 | [8] -0.025 | [10] -0.024 | [11] 0.05

RASA1 (UniProt P20936)
inactive: [1] -0.111 | [2] 0.26 | [3] -0.044 | [4] -0.126 | [5] -0.026 | [7] -0.033 | [8] -0.008 | [9] 0.173 | [10] -0.114 | [11] -0.029

RAB29 (UniProt O14966)
inactive: [1] -0.042 | [2] -0.007 | [3] -0.122 | [4] -0.035 | [5] 0.011 | [6] 0.047 | [7] -0.072 | [8] -0.007 | [9] -0.035 | [10] -0.255 | [11] -0.035

R3HDM4 (UniProt Q96D70)
inactive: [1] 0.048 | [2] -0.013 | [3] -0.111 | [4] 0.264 | [5] 0.143 | [7] 0.053 | [8] -0.203 | [9] 0.1 | [10] 0.023 | [11] -0.053

RAPGEF4 (UniProt Q8WZA2)
inactive: [1] -0.095 | [2] -0.13 | [3] -0.054 | [4] -0.04 | [5] -0.003 | [7] 0.161 | [8] 0.125 | [9] -0.279 | [10] 0.127

RACGAP1 (UniProt Q9H0H5)
inactive: [1] -0.005 | [2] -0.105 | [3] -0.033 | [4] -0.106 | [5] 0.101 | [6] 0.109 | [7] -0.036 | [8] 0.004 | [9] 0.108 | [10] -0.142 | [11] -0.01

RABGGTB (UniProt P53611)
inactive: [1] -0.053 | [2] 0.032 | [3] 0.115 | [4] -0.017 | [5] -0.009 | [6] 0.088 | [7] 0.058 | [8] -0.023 | [9] -0.016 | [10] -0.049 | [11] 0.009

RALB isoform 2 (UniProt P11234)
inactive: [1] -0.053 | [2] 0.012 | [3] 0.051 | [4] 0.021 | [5] -0.039 | [6] -0.117 | [7] 0.039 | [8] -0.058 | [9] -0.04 | [10] -0.016 | [11] -0.004

RAD51C (UniProt O43502)
inactive: [1] -0.063 | [2] -0.027 | [3] -0.087 | [4] -0.036 | [5] -0.028 | [6] 0.036 | [7] -0.03 | [8] -0.005 | [9] -0.013 | [10] 0.036 | [11] 0.072

RAB1B (UniProt Q9H0U4)
inactive: [1] -0.13 | [2] -0.098 | [3] -0.056 | [4] -0.039 | [5] -0.035 | [6] -0.037 | [7] -0.061 | [8] 0.079 | [9] -0.002 | [10] -0.061 | [11] -0.025

RAD50, A0A494C0Y7
inactive: [1] -0.032 | [2] -0.159 | [3] -0.28 | [4] -0.175 | [5] -0.103 | [6] -0.086 | [7] 0.095 | [8] 0.103 | [10] -0.279

RAPGEF5, A0A590UJR0
inactive: [1] 0.081 | [2] -0.196 | [3] -0.028 | [4] -0.449 | [5] 0.031 | [6] 0.117 | [7] 0.011 | [8] -0.082 | [10] 0.053 | [11] -0.125

RABAC1 (UniProt Q9UI14)
inactive: [1] 0.061 | [2] 0.033 | [3] 0.052 | [4] 0.029 | [5] 0.019 | [6] 0.206 | [7] 0.021 | [8] 0.004 | [9] 0 | [10] -0.017 | [11] -0.014
